The list does not hold the whole screen: it gathers tests that were run many times, whatever their T/C, doses with no T/C, and many T/C values between a quarter and a half above the control. Other doses and runs of a compound stand elsewhere. T/C gives the treated animals as a percentage of the vehicle group. Some entries give survivors of the animals treated and no T/C: the source holds a T/C of zero for them, seemingly a mark for toxic or unscored doses. Some survivor counts are full or nearly so, which does not show that the dose was tolerated: survival well below the control is almost never listed, so the zero probably covers shortened survival too. Survivors were counted at the toxicity check, usually on the fifth day, unless a day is given; later deaths do not show. Schedules are NCI's codes, taken here to give the interval after Q, in days (D) or hours (H), and the number of doses after X. Some schedules carry Z or #; the key to these is not given. For survival time, this PubChem deposit counts one and a half times the control or more as active, and values a quarter to a half above the control carry no call in these data; other NCI protocols may use other cut-offs.
System: L1210 leukemia ip in BDF1 mice, survival T/C
Test: NCI In Vivo Anticancer Drug Screen. Data for tumor model L1210 Leukemia (intraperitoneal) in B6D2F1 (BDF1) mice
Conditions: T/C endpoint: mean survival time, higher T/C = longer survival
[1] = dose: 400.0 mg/kg/injection, schedule: Q01DX009 (ip), vehicle: saline with Tween-80
[2] = dose: 400.0 mg/kg/injection, schedule: Q01DX001 (ip), vehicle: saline with Tween-80
[3] = dose: 100.0 mg/kg/injection, schedule: Q01DX009 (ip), vehicle: Klucel (hydroxypropylcellulose) (HPC)
[4] = dose: 200.0 mg/kg/injection, schedule: Q01DX009 (ip), vehicle: Klucel (hydroxypropylcellulose) (HPC)
[5] = dose: 400.0 mg/kg/injection, schedule: Q01DX009 (ip), vehicle: Klucel (hydroxypropylcellulose) (HPC)
[6] = dose: 400.0 mg/kg/injection, schedule: Q01DX009 (ip), vehicle: water
[7] = dose: 400.0 mg/kg/injection, schedule: Q01DX001 (ip), vehicle: saline
[8] = dose: 480.0 mg/kg/injection, schedule: Q01DX Z (ip), vehicle: saline
[9] = dose: 150.0 mg/kg/injection, schedule: Q01DX001 (ip), vehicle: saline
[10] = dose: 300.0 mg/kg/injection, schedule: Q01DX001 (ip), vehicle: saline

Question: Which survivor count (dose: 100.0 mg/kg/injection, schedule: Q01DX001 (ip), vehicle: carboxymethylcellulose (CMC)) does the source give for COc1ccc(N2C(=O)OC3(CCNCC3)C2=O)cc1 here?
Answer: 2 of 6

Question: And the survivor count (dose: 200.0 mg/kg/injection, schedule: Q01DX001 (ip), vehicle: carboxymethylcellulose (CMC))?
Answer: 0 of 6

Question: And the survivor count (dose: 400.0 mg/kg/injection, schedule: Q01DX001 (ip), vehicle: carboxymethylcellulose (CMC))?
Answer: 0 of 6

Question: How did the survivor count (dose: 200.0 mg/kg/injection, schedule: Q01DX009 (ip), vehicle: saline with Tween-80) turn out when CC(C)(C)OC(=O)NCCCCC(NC(=O)OCc1ccccc1)C(=O)O (stereo not drawn) was run?
Answer: 3 of 6

Question: And the survivor count [1]?
Answer: 0 of 6

Question: Which survivor count [2] does the source give for CCCCCCC(CCCCCC)c1ccccc1 here?
Answer: 6 of 6

Question: What does the source list for O=C(CI)Nc1ccc(Cl)c(Cl)c1?
Answer: survivor count [3]: 1 of 6; survivor count [4]: 0 of 6; survivor count [5]: 0 of 6

Question: SC1(S)CN2CCC1CC2 was tested. Which survivor count (dose: 25.0 mg/kg/injection, schedule: Q01DX009 (ip), vehicle: saline) did it give?
Answer: 3 of 6

Question: For O=C1CN(CN2CCCCC2)C(=O)CN1CN1CCCCC1, which survivor count [5] is on record?
Answer: 2 of 6

Question: For O=S(=O)(F)c1cc(Cl)c(O)cc1Cl, which survivor count [5] is on record?
Answer: 6 of 6

Question: With NC(N)=Nc1ccc(C(=O)Oc2ccc(OC(=O)c3cccc(N=C(N)N)c3)cc2)cc1 as the molecule, how does the survivor count [6] read?
Answer: 2 of 6

Question: What does the source list for NC(N)=N/N=C\c1ccc(/C=N/N=C(N)N)cc1?
Answer: survivor count (dose: 240.0 mg/kg/injection, schedule: Q01DX Z (ip), vehicle: carboxymethylcellulose (CMC)): 6 of 6; survivor count (dose: 480.0 mg/kg/injection, schedule: Q01DX Z (ip), vehicle: carboxymethylcellulose (CMC)): 0 of 6

Question: With CSc1nc(Cl)c(-c2ccccc2)c(N2CC2)n1 as the molecule, how does the survivor count (dose: 100.0 mg/kg/injection, schedule: Q01DX Z (ip), vehicle: methylcellulose (MC)) read?
Answer: 3 of 6

Question: What about the survivor count (dose: 200.0 mg/kg/injection, schedule: Q01DX Z (ip), vehicle: methylcellulose (MC)) of the same molecule?
Answer: 0 of 6

Question: Cc1ccc(S(=O)(=O)C[n+]2ccccc2)cc1 was tested. Which survivor count (dose: 400.0 mg/kg/injection, schedule: Q04DX002 (ip), vehicle: saline with Tween-80) did it give?
Answer: 0 of 3

Question: CCOc1ccc(Nc2ncnc3nc[nH]c23)cc1CN(CCCl)C(C)CCl (stereo not drawn) was tested. Which survivor count (dose: 8.0 mg/kg/injection, schedule: Q01DX Z (ip), vehicle: saline) did it give?
Answer: 5 of 6

Question: How did the survivor count [7] turn out when COC(=O)C1(C)COP(=O)(Nc2ccc(OC)cc2)OC1 (stereo not drawn) was run?
Answer: 4 of 4

Question: How did the survivor count [5] turn out when CCCCCCCCCNC(C)=O was run?
Answer: 0 of 6

Question: With CC(=O)OCC1OC(S[As](C)C)C(OC(C)=O)C(OC(C)=O)C1OC(C)=O (stereo not drawn) as the molecule, how does the survivor count [5] read?
Answer: 4 of 6

Question: [Cl][Pt][Cl].[NH-]CCN1CC1 was tested. Which survivor count (dose: 100.0 mg/kg/injection, schedule: Q01DX001 (ip), vehicle: Klucel (hydroxypropylcellulose) (HPC)) did it give?
Answer: 0 of 6

Question: What about the survivor count (dose: 200.0 mg/kg/injection, schedule: Q01DX001 (ip), vehicle: Klucel (hydroxypropylcellulose) (HPC)) of the same molecule?
Answer: 0 of 6

Question: And the survivor count (dose: 400.0 mg/kg/injection, schedule: Q01DX001 (ip), vehicle: Klucel (hydroxypropylcellulose) (HPC))?
Answer: 0 of 6

Question: Cc1cc(C(=O)Nc2ccc(C3=NCCN3)cc2)ccc1C(=O)Nc1ccc(C2=NCCN2)cc1 was tested. Which T/C (dose: 15.0 mg/kg/injection, schedule: Q01DX Z (ip), vehicle: saline) did it give?
Answer: 127 % of control

Question: And the T/C (dose: 30.0 mg/kg/injection, schedule: Q01DX Z (ip), vehicle: saline)?
Answer: 144 % of control

Question: And the survivor count [8]?
Answer: 0 of 6

Question: What does the source list for NC(N)=N/N=C\c1c[nH]c2ccc(Br)cc12?
Answer: survivor count (dose: 120.0 mg/kg/injection, schedule: Q01DX Z (oral), vehicle: saline): 6 of 6; survivor count [8]: 1 of 6; survivor count (dose: 960.0 mg/kg/injection, schedule: Q01DX Z (oral), vehicle: saline): 3 of 6

Question: For c1ccc([P+](Cc2ccco2)(c2ccccc2)c2ccccc2)cc1, which survivor count (dose: 80.0 mg/kg/injection, schedule: Q01DX001 (ip), vehicle: saline) is on record?
Answer: 2 of 4

Question: How did the survivor count (dose: 20.0 mg/kg/injection, schedule: Q01DX009 (ip), vehicle: saline) turn out when CCCCCCCCCCCCCCCCCC[n+]1cccc(C#N)c1 was run?
Answer: 3 of 6

Question: What about the survivor count (dose: 75.0 mg/kg/injection, schedule: Q01DX001 (ip), vehicle: saline) of the same molecule?
Answer: 0 of 6

Question: What about the survivor count [9] of the same molecule?
Answer: 0 of 6

Question: And the survivor count [10]?
Answer: 0 of 6

Question: With CC1CCC2(OC1)OC1C(O)C3C4CCC5CC(OC6OC(CO)C(OC7OC(CO)C(O)C(OC8OCC(O)C(O)C8O)C7OC7OC(CO)C(O)C(OC8OC(CO)C(O)C(O)C8O)C7O)C(O)C6O)C(O)CC5(C)C4CCC3(C)C1C2C (stereo not drawn) as the molecule, how does the survivor count (dose: 50.0 mg/kg/injection, schedule: Q01DX001 (ip), vehicle: saline with Tween-80) read?
Answer: 1 of 3

Question: And the survivor count (dose: 100.0 mg/kg/injection, schedule: Q01DX001 (ip), vehicle: saline with Tween-80)?
Answer: 0 of 3

Question: Which results are given for Cc1cnc(-n2nc(-c3ccccc3)cc2-c2ccccc2)nc1-c1ccccc1O?
Answer: survivor count [3]: 2 of 3; survivor count [4]: 3 of 3

Question: Which results are given for O=C1c2ccccc2C(=O)N1CC[P+](c1ccccc1)(c1ccccc1)c1ccccc1?
Answer: survivor count (dose: 25.0 mg/kg/injection, schedule: Q01DX009 (ip), vehicle: water): 1 of 6; survivor count (dose: 50.0 mg/kg/injection, schedule: Q01DX009 (ip), vehicle: water): 1 of 6; survivor count (dose: 100.0 mg/kg/injection, schedule: Q01DX009 (ip), vehicle: water): 0 of 6; survivor count (dose: 200.0 mg/kg/injection, schedule: Q01DX009 (ip), vehicle: water): 0 of 6; survivor count [6]: 0 of 6

Question: What does the source list for COc1cc(CC#N)ccc1C?
Answer: survivor count (dose: 75.0 mg/kg/injection, schedule: Q01DX009 (ip), vehicle: Klucel (hydroxypropylcellulose) (HPC)): 0 of 6; survivor count (dose: 115.0 mg/kg/injection, schedule: Q01DX009 (ip), vehicle: Klucel (hydroxypropylcellulose) (HPC)): 0 of 6; survivor count (dose: 170.0 mg/kg/injection, schedule: Q01DX009 (ip), vehicle: Klucel (hydroxypropylcellulose) (HPC)): 0 of 6

Question: What does the source list for O=C(O)CCC(=O)c1ccc2sc3ccccc3c2c1?
Answer: survivor count [4]: 0 of 6; survivor count [5]: 0 of 6

Question: CCCC(=O)OC1=CC(=O)c2ccccc2C1=O was tested. Which survivor count (dose: 300.0 mg/kg/injection, schedule: Q01DX001 (ip), vehicle: other) did it give?
Answer: 1 of 6

Question: CC(=O)c1cccc(N2C(=O)CC(=P(c3ccccc3)(c3ccccc3)c3ccccc3)C2=O)c1 was tested. Which survivor count [9] did it give?
Answer: 3 of 6

Question: What about the survivor count [10] of the same molecule?
Answer: 1 of 6

Question: How did the survivor count (dose: 200.0 mg/kg/injection, schedule: Q03DX002 (ip), vehicle: saline with Tween-80) turn out when C(=C(c1ccccc1)c1ccccc1)C1=NCCS1 was run?
Answer: 1 of 3

Question: With NC(=O)Cc1csc2ccccc12 as the molecule, how does the survivor count [7] read?
Answer: 1 of 4

Question: How did the survivor count [1] turn out when N=c1ccn(C(=O)C2=Cc3cc(Cl)ccc3OC2)cc1 was run?
Answer: 6 of 6

Question: For CC1(C)N=C(N)N=C(N)N1c1ccc(CCC(=O)Nc2cccc(S(=O)(=O)F)c2)cc1, which survivor count (dose: 150.0 mg/kg/injection, schedule: Q#A X018 (ip), vehicle: saline) is on record?
Answer: 4 of 6

Question: And the survivor count (dose: 200.0 mg/kg/injection, schedule: Q01DX009 (ip), vehicle: saline)?
Answer: 2 of 6

Question: What about the survivor count (dose: 200.0 mg/kg/injection, schedule: Q#A X018 (ip), vehicle: saline) of the same molecule?
Answer: 1 of 6

Question: What about the survivor count (dose: 300.0 mg/kg/injection, schedule: Q01DX009 (ip), vehicle: saline) of the same molecule?
Answer: 0 of 6

Question: What about the survivor count (dose: 400.0 mg/kg/injection, schedule: Q01DX009 (ip), vehicle: saline) of the same molecule?
Answer: 0 of 6

Question: And the survivor count (dose: 500.0 mg/kg/injection, schedule: Q01DX009 (ip), vehicle: saline)?
Answer: 0 of 6

Question: With COc1cccc(C(=O)O)c1OS(=O)(=O)c1ccccc1 as the molecule, how does the survivor count (dose: 200.0 mg/kg/injection, schedule: Q04DX003 (ip), vehicle: Klucel (hydroxypropylcellulose) (HPC)) read?
Answer: 6 of 6

Question: Which survivor count [2] does the source give for N=c1c2ncn(C3CCCC3)c2ncn1O here?
Answer: 0 of 6

Question: Which survivor count (dose: 200.0 mg/kg/injection, schedule: Q04DX003 (ip), vehicle: saline) does the source give for CN(CCC(=O)c1ccccc1)C(C)(C)C here?
Answer: 0 of 6

Question: And the survivor count (dose: 400.0 mg/kg/injection, schedule: Q04DX003 (ip), vehicle: saline)?
Answer: 0 of 6

Question: For CCOc1ccccc1NC(=O)C1CCCCC1C(=O)O (stereo not drawn), which survivor count (dose: 400.0 mg/kg/injection, schedule: Q04DX002 (ip), vehicle: saline) is on record?
Answer: 1 of 3

Question: CC(Cc1ccccc1)NC(=O)NCCCl (stereo not drawn) was tested. Which survivor count (dose: 400.0 mg/kg/injection, schedule: Q04DX003 (ip), vehicle: Klucel (hydroxypropylcellulose) (HPC)) did it give?
Answer: 2 of 6

Source: PubChem BioAssay AID248 (DTP/NCI, 2004)
